Results reported in patent US20260217845A1.
Results are given in words; binding and its absence hold for the method and conditions named. Some binding calls cover weakened binding; strength is not graded here.

Chains of the proteins cited; added tags and fusions are not shown. Lines headed by an entry give the natural chain unless they say otherwise; changes in a name come on top.
UniProt P20333: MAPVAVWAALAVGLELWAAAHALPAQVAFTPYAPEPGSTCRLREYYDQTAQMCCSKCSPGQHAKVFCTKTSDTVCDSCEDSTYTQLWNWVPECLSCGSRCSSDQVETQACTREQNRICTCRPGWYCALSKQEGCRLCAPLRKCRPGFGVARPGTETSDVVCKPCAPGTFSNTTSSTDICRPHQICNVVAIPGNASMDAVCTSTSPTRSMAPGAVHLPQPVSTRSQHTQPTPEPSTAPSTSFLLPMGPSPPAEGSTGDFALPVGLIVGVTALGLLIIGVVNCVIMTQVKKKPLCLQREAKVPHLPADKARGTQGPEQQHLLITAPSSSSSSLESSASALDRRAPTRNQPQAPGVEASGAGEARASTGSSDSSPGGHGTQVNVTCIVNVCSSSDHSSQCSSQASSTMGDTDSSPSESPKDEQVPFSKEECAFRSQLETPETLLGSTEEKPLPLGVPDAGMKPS

B1: N1402hu1 (VHH, not shown: small tags and cut ends)
VHH: EVQLLESGGGLVQPGGSLRLSCAASGRTFSSLFMGWFRQAPGKEREFVASIRYPGLITNYADSAKGRFTISRDSAKNTVYLQMNSLRPEDTGVYYCAAAPTGRAFNYWGQGTQVTVSS
B2: N1425hu1 (VHH, not shown: small tags and cut ends)
VHH: EVQLVESGGGLVQPGGSLRLSCAVSGASLSRNAIIWVRQAPGKGLEWVSTIYDDGETYYADSVKGRFTISRDLAKNTVYLQMNSLRAEDTAVYYCAGSAFDFWGQGTQVTVSS
B3: N1277hu1 (VHH, not shown: small tags and cut ends)
VHH: EVQLLESGGGLVQPGGSLRLSCAASGLTLDYYAIGWFRQAPGKEREGVSCISTSDGSTYYADSVKGRFTISRDNAKNTVYLQMNSLRPEDTAVYYCATPGPYTYCAPYGSSWSRGYDYWGQGTQVTVSS

Molecular target: TNFR2 stably expressed on HEK293 NF-κB reporter (Luc) cells (human) (UniProt P20333)
Assay: flow cytometry on TNFR2 expressing HEK cells, with or without MR2-1 (legend of FIG. 11)

binding, binds:
B1, B2, B3

Molecular target: TNFR2 stably expressed on HEK293 NF-κB reporter (Luc) cells (human) (UniProt P20333)
Assay: flow cytometry on TNFR2 expressing HEK cells (clone 25), with or without MR2-1 (5 or 10 µg/ml), anti-His detection

binding, binds:
B1, B2, B3
